# Results are given in words; binding and its absence hold for the method and conditions named.
# Protein sequences, listed by entry. Tags and fused reporters are not part of them. Residues count along the entry.
# UniProt Q9S7H8, residues 46-569: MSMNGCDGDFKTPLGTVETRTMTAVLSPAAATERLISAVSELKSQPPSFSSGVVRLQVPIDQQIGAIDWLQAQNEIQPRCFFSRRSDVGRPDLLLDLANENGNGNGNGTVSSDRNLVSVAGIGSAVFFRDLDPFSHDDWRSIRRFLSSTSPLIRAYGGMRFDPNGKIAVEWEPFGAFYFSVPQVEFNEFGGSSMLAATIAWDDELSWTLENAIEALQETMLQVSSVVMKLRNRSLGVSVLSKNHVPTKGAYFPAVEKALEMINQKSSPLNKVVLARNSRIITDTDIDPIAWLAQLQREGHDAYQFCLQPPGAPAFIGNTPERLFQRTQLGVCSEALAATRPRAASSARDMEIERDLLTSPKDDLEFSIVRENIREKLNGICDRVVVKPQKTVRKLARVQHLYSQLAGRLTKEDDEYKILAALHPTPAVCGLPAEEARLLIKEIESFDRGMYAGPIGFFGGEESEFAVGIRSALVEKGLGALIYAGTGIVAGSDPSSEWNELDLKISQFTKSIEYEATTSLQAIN
# Molecular target: His6-AtICS1 (Arabidopsis thaliana isochorismate synthase 1, hexahistidine fusion, without the transit peptide) (Arabidopsis thaliana) (UniProt Q9S7H8)
# Test: SEC; HiLoad 16/60 Superdex 200 preparative grade column with standards; 50 mM Tris-HCl pH 8.0, 500 µM EDTA, 10% v/v glycerol, 1 mM DTT; 4°C; 0.5 ml/min; both purified
substance,measurement,value
"His6-AtICS1 (Arabidopsis thaliana isochorismate synthase 1, hexahistidine fusion, without the transit peptide) (from UniProt Q9S7H8 46-569) (enzyme)",binding,no binding
